Reference: PubChem BioAssay AID1259283 (Sanger Institute, 2017)
Here is a random part of 794 reagents. 14 of them (1.8%) were called active. 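Calls reflect only viability loss without drug; drug synergy does not enter the call.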 Further read-outs or replicates are left out here. Not given: the amount of reagent, the time to read-out.

- Aim: 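Kinome-wide siRNA search for kinases acting with BYL719, cetuximab or trametinib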 (primary screen)
- Cells: HT115 colorectal cancer cells
- Reagent: siRNA pool against human genes
- Challenge: anchor drug given one day after siRNA: BYL719 at 1 µM, cetuximab at 5 µg/ml, trametinib at 10 nM, or DMSO vehicle alone
- Detection: 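Viability normalised to non-targeting pool #2 wells and averaged over replicates, robust z-score against control wells, and a synergy score for each of three drugs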
- Reading the numbers: robust z-score, knock-down alone: higher = more viable cells after knock-down
- Active means: 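Essential gene: robust z-score less than -3 with no drug added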
- Meaning of the calls: active = essential (z below -3, no drug); inactive = no change without drug

LMBR1 → robust z-score, knock-down alone = 0.77; Call = inactive
PIP5K1B → robust z-score, knock-down alone = 0.789; Call = inactive
TTK → robust z-score, knock-down alone = -0.249; Call = inactive
NME1 → robust z-score, knock-down alone = 0.424; Call = inactive
HCK → robust z-score, knock-down alone = 0.47; Call = inactive
LRRK2 → robust z-score, knock-down alone = 0.4; Call = inactive
TLK1 → robust z-score, knock-down alone = -1.53; Call = inactive
GALK2 → robust z-score, knock-down alone = -1.66; Call = inactive
TAOK2 → robust z-score, knock-down alone = 0.164; Call = inactive
AK4 → robust z-score, knock-down alone = 0.388; Call = inactive
PDK4 → robust z-score, knock-down alone = -0.624; Call = inactive
FLT3 → robust z-score, knock-down alone = 0.292; Call = inactive
ETNK2 → robust z-score, knock-down alone = -1.02; Call = inactive
CSNK2A1 → robust z-score, knock-down alone = 0.486; Call = inactive
MAK → robust z-score, knock-down alone = -1.15; Call = inactive
BMX → robust z-score, knock-down alone = 0.284; Call = inactive

Continued; the last 2 above are carried over.
MAK → robust z-score, knock-down alone = -1.15; Call = inactive
BMX → robust z-score, knock-down alone = 0.284; Call = inactive
GNAS → robust z-score, knock-down alone = 0.22; Call = inactive
MAST3 → robust z-score, knock-down alone = 0.789; Call = inactive
MAP3K2 → robust z-score, knock-down alone = 0.789; Call = inactive
PCBP1 → robust z-score, knock-down alone = 0.789; Call = inactive
DYRK4 → robust z-score, knock-down alone = -1.2; Call = inactive
MPP2 → robust z-score, knock-down alone = 0.694; Call = inactive
PLK2 → robust z-score, knock-down alone = 0.789; Call = inactive
ARID1A → robust z-score, knock-down alone = 0.789; Call = inactive
PDPK1 → robust z-score, knock-down alone = -0.437; Call = inactive
CSNK1E → robust z-score, knock-down alone = 0.789; Call = inactive
HUNK → robust z-score, knock-down alone = -0.962; Call = inactive
DDR1 → robust z-score, knock-down alone = 0.789; Call = inactive
